Among the data in publication PMC9949044 are binding values, retold here.

These are yes or no findings as the source states them, for the method shown. In cells and extracts the contact can be indirect. These calls come from enrichment with a bait or labelling near it, and not all partners need be listed.

This assay has as its target T1, un-acetylated N-terminal H2B.Z peptide, biotinylated (Toxoplasma gondii).
T1 sequence (peptide, biotin on the C-terminal lysine, K(Biotin)): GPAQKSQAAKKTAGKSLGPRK
Description: affinity purification with mass spectrometry; biotinylated H2B.Z N-terminal peptides (acetylated or un-acetylated) as bait; nuclear extract (NE-PER kit) of extracellular RH tachyzoites; short SDS-PAGE, in-gel trypsin digestion, LC-MS/MS; two independent pull-downs for each peptide; only the target purified.
As to “RNA recognition motif (RRM)-containing protein (TGME49_262620)”, the binding result is reported as “binds”.

As for clathrin, the binding result is recorded as “binds”. Then “acetyl-CoA carboxylase ACC1 (TGME49_221320) (from UniProt S8FE00) (enzyme)”, with “binds”.
